# Assay results published in publication PMC3104994.
# Sequences of proteins named here, by UniProt entry; tags and fusion partners are left off. A change or cut given only in a name is not applied to a line headed by its entry. Residues count along the entry.
# UniProt O43295: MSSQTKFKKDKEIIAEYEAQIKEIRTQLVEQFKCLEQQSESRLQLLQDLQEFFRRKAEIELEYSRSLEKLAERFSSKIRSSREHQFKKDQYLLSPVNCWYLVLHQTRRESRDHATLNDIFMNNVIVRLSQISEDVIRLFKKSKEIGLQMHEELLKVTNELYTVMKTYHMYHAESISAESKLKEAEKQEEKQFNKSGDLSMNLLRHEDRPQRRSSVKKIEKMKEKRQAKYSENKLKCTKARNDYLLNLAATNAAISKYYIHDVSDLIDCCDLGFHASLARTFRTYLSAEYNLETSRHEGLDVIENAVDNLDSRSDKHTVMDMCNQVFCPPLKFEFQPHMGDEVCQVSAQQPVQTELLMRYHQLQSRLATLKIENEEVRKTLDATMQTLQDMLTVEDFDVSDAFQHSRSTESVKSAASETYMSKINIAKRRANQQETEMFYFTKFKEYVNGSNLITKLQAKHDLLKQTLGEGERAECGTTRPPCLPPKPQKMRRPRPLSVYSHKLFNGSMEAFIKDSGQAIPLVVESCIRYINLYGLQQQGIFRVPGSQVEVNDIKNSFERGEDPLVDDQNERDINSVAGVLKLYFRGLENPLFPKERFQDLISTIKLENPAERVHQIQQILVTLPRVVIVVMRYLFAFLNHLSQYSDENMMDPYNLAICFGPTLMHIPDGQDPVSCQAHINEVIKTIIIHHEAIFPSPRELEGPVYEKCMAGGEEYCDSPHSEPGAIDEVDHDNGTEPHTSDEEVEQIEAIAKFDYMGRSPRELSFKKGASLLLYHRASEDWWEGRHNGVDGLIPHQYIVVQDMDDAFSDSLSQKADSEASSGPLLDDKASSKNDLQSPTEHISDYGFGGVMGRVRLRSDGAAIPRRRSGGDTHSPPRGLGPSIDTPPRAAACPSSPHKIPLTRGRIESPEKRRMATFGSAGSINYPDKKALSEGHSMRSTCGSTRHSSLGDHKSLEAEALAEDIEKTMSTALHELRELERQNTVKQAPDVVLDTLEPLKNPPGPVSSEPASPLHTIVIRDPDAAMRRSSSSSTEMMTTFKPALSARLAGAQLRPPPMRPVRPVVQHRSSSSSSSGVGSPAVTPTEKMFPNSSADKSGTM
# UniProt Q9Y6N7, residues 26-1651: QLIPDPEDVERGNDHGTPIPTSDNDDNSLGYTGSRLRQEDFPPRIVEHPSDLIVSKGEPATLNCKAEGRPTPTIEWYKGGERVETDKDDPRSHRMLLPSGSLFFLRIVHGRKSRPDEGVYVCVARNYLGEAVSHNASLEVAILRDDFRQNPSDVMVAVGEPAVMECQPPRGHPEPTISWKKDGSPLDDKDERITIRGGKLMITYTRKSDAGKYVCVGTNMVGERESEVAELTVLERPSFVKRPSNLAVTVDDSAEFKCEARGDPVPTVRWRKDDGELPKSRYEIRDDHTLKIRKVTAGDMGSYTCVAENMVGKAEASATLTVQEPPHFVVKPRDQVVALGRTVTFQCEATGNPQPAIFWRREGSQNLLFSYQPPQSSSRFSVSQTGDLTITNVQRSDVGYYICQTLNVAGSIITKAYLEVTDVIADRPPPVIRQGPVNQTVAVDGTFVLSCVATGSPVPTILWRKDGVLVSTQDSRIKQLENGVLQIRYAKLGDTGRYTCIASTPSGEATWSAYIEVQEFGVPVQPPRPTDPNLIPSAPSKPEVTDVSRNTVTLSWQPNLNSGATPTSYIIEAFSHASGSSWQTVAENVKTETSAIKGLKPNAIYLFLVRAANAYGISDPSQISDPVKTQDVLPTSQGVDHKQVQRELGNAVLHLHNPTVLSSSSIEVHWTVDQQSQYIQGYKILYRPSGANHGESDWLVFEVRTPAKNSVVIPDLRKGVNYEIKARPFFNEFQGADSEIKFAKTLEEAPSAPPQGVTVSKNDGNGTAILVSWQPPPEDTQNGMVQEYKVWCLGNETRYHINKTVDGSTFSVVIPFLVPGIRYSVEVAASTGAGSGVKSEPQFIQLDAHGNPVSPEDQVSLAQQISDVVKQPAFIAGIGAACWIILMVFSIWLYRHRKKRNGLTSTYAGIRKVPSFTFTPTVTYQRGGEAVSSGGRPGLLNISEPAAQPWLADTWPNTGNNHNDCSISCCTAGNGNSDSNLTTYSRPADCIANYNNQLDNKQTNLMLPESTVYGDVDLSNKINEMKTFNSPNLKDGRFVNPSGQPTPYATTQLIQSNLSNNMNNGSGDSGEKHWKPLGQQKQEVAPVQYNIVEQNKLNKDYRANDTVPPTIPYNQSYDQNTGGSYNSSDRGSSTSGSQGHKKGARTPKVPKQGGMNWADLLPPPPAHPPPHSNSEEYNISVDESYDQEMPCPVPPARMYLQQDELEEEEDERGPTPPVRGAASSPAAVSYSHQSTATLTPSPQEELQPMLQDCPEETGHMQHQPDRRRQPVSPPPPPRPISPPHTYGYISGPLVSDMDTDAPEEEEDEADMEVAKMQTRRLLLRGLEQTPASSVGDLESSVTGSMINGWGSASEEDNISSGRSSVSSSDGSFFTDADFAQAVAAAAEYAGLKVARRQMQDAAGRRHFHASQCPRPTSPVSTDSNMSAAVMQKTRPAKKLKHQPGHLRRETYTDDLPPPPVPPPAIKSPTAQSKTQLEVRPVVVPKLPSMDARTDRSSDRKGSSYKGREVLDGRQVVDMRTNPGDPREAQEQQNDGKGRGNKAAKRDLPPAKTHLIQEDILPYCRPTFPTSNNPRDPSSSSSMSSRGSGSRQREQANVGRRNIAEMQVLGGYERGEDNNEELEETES
# UniProt Q9HCK4, residues 22-1378: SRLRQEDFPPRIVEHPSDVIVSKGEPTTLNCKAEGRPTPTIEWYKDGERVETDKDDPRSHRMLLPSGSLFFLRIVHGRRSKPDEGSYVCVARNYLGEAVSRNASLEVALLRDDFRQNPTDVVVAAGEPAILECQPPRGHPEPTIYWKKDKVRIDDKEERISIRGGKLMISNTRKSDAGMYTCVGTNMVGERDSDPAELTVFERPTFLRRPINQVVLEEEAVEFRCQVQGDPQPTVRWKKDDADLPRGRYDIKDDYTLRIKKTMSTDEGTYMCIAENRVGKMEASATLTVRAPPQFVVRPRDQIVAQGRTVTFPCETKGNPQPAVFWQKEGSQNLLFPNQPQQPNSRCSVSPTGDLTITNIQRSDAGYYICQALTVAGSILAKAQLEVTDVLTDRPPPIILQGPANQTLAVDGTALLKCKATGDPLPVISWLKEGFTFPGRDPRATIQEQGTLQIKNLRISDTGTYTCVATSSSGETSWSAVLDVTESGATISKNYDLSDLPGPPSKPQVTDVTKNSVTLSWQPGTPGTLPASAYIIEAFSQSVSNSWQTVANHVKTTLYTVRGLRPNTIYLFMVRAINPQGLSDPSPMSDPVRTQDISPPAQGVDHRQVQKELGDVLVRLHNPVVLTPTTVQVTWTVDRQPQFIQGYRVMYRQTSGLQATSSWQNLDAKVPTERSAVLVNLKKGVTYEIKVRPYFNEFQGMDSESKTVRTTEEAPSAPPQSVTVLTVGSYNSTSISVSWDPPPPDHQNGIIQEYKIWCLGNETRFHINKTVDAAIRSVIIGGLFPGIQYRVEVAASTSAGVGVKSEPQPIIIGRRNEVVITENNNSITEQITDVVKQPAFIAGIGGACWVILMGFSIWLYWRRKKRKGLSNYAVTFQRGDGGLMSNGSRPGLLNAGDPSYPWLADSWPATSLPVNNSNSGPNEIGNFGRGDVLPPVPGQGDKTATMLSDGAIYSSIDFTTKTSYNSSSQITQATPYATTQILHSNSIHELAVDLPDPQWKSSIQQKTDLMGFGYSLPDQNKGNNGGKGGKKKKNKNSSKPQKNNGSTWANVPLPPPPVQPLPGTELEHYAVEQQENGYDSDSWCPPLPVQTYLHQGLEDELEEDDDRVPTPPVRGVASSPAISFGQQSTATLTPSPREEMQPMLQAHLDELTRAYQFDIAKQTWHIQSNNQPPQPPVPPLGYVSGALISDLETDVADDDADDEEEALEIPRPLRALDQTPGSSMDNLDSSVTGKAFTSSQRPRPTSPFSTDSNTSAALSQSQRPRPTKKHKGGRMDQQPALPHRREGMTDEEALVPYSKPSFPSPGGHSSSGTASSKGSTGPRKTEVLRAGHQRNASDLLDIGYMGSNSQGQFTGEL
# Results are given in words; binding and its absence hold for the method and conditions named. In cells and extracts the contact can be indirect.
# How the values were obtained:
# [1] = target: srGAP3 construct carrying a mutation in the SH3 domain (UniProt O43295); experiment: co-IP; HEK293 cells transiently co-transfected with srGAP3 and Myc-tagged Robo1/2 constructs; lysed in modified RIPA buffer (50 mM Tris/HCl pH 7.4, 1% NP-40, 0.25% Na-deoxycholate, 1 mM EDTA); 400 µg lysate precipitated with rabbit srGAP3 (19.1) antibody and protein A/G sepharose; blot with anti-myc 9E10
# [2] = target: Slit-Robo GTPase activating protein 3 (srGAP3), full length (UniProt O43295); experiment: as above
binding [1],binding [2],Substance
no binding,,"Myc-tagged Robo1, full length (from UniProt Q9Y6N7 26-1651) (receptor)"
no binding,,"Myc-tagged Robo2, full length (from UniProt Q9HCK4 22-1378) (receptor)"
,no binding,"ΔCC3 Robo1 (truncated Robo1 construct missing the CC3 domain), Myc-tagged (from UniProt Q9Y6N7) (receptor)"
,no binding,"ΔCC3 Robo2 (truncated Robo2 construct missing the CC3 domain), Myc-tagged (from UniProt Q9HCK4) (receptor)"
